Laboratory results reported in the supplement of paper PMC3334620.
Whole data set: some 33,000 sequences, median “E-score (-0.5 to 0.5)” near -8e-05, cut for the highest 2% near 0.23. The list shows a part of the results.

target: T1, Nrg2 (UniProt P38082); test: PBM E-score (8-mer binding enrichment) (E-score (-0.5 to 0.5)); higher = stronger / more preferred TF binding; settings: protein concentration: 100 nM; construct: GST-full length
T1 sequence: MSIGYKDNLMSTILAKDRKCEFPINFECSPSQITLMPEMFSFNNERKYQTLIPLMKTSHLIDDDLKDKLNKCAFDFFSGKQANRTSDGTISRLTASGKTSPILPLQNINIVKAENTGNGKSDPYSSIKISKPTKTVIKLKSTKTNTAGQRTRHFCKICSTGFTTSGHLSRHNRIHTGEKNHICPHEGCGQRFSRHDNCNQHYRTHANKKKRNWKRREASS
How it was run: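 Bound GST-tagged yeast transcription factors, applied at about 100-200 nM to double-stranded universal all-10-mer Agilent arrays, were detected with fluorescent anti-GST. Scans were normalised with masliner. A modified Wilcoxon-Mann-Whitney statistic, the E-score, was assigned to each ungapped eight-base word pooled with its reverse complement by the Universal PBM Analysis Suite.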

Going from AAACATAG to CCATTGTC, the “PBM E-score” value rises from -0.124 to 0.0211.

Going from AAGTGCGG to GCCAGTAA, the “PBM E-score” value falls from 0.133 to -0.111.

First: ACATGTTC
Second: ACAATAGA
The “PBM E-score” value of the first is lower: 0.0432 for the first, 0.207 for the second.

Compared with AGCCGTAG, ATTGGGGG is lower in “PBM E-score” value: 0.0625 for the first, -0.366 for the second.

First: TGAGAAAA
Second: GCACTGCC
The “PBM E-score” value of the first is higher: 0.135 for the first, 0.0387 for the second.

Compared with CATTTCTC, AACCCCCA is lower in “PBM E-score” value: 0.0263 for the first, -0.39 for the second.

First: AAACCGAT
Second: CAGCGGCC
The “PBM E-score” value of the first is higher: -0.137 for the first, -0.154 for the second.

Going from GCGGCTCA to ATGTGGTG, the “PBM E-score” value rises from -0.0268 to 0.00638.

Compared with CGTTATAG, ACAACAGA is lower in “PBM E-score” value: 0.0243 for the first, -0.0576 for the second.

Going from TACCCGAA to CGCACCTA, the “PBM E-score” value falls from 0.0732 to -0.093.

First: ACATATCG
Second: ATAGGCAG
The “PBM E-score” value of the first is lower: 0.0325 for the first, 0.128 for the second.

First: CGTACTTC
Second: GAGGTTCA
The “PBM E-score” value of the first is higher: 0.0661 for the first, 0.0461 for the second.

First: AACTTATC
Second: ATCACCCC
The “PBM E-score” value of the first is higher: 0.121 for the first, 0.00817 for the second.

Compared with CTAAAAAC, CCTAGCCG is higher in “PBM E-score” value: -0.233 for the first, -0.0406 for the second.

Going from AGCCCAGA to GCGCGTCC, the “PBM E-score” value falls from 0.083 to 0.0553.

Going from ACTGATTA to TCGTGTCA, the “PBM E-score” value falls from 0.0244 to -0.161.

First: CCCTGCGC
Second: AAACTATG
The “PBM E-score” value of the first is higher: 0.1 for the first, -0.0201 for the second.

First: ACGTTAAA
Second: CCACGTAG
The “PBM E-score” value of the first is higher: 0.0247 for the first, -0.189 for the second.

First: CGTGCTTC
Second: CGTTAAAG
The “PBM E-score” value of the first is higher: 0.179 for the first, 0.00135 for the second.

Going from GCGCTTCA to AAGACCAA, the “PBM E-score” value falls from 0.0744 to -0.0416.

Going from AAGGGGCG to GAGACTGC, the “PBM E-score” value falls from -0.117 to -0.161.

Going from CGAAGCTA to GCAACAAA, the “PBM E-score” value rises from 0.00827 to 0.176.

Going from CGCCTCTA to CCGACAGA, the “PBM E-score” value rises from -0.0805 to 0.141.

Compared with CCCCACAA, ATGCTTGC is lower in “PBM E-score” value: -0.012 for the first, -0.0769 for the second.

Going from ACATTACG to AGGATCCT, the “PBM E-score” value rises from 0.111 to 0.131.

Compared with CTGTACAG, CTTTGGGA is higher in “PBM E-score” value: -0.092 for the first, -0.076 for the second.

Compared with CGGCGCCC, CGGCTCTC is lower in “PBM E-score” value: 0.00082 for the first, -0.126 for the second.

Going from ATCGGGGA to AGCGGATA, the “PBM E-score” value falls from 0.0169 to -0.042.

First: GAGCTCAA
Second: ACGTTCCT
The “PBM E-score” value of the first is higher: 0.0843 for the first, -0.0343 for the second.

First: CTAACAAG
Second: GGAATACA
The “PBM E-score” value of the first is lower: -0.0148 for the first, 0.0334 for the second.

Compared with ACCAAGAG, AGAGGCGC is lower in “PBM E-score” value: 0.0211 for the first, -0.158 for the second.

First: ACGACCAC
Second: ACGCCCCT
The “PBM E-score” value of the first is lower: -0.00155 for the first, 0.0134 for the second.

Going from GGCTAGAA to AGAGTGAA, the “PBM E-score” value rises from -0.177 to -0.0477.

Compared with CGAGGAGA, ATCTGTGC is higher in “PBM E-score” value: -0.0175 for the first, 0.133 for the second.

Going from ACAGCGCG to AGGAAGTC, the “PBM E-score” value falls from 0.192 to -0.177.

First: AAGGCAAG
Second: AGTAGATA
The “PBM E-score” value of the first is lower: -0.112 for the first, 0.249 for the second.

First: GCCCGACC
Second: AGTAATGA
The “PBM E-score” value of the first is lower: -0.107 for the first, 0.111 for the second.

Compared with CGCGCCTC, AAGTCAGT is higher in “PBM E-score” value: 0.00193 for the first, 0.0388 for the second.

First: AGTTGCCC
Second: GGGAAAAA
The “PBM E-score” value of the first is higher: 0.111 for the first, 0.102 for the second.

Compared with AGCCCACC, ACATTGAT is higher in “PBM E-score” value: -0.214 for the first, 0.128 for the second.

Compared with GAGGGCGA, CTGATTCC is higher in “PBM E-score” value: -0.272 for the first, 0.0509 for the second.

First: CAGAGGTC
Second: CACGCCAC
The “PBM E-score” value of the first is higher: 0.00355 for the first, -0.124 for the second.

Compared with AAGCACGA, AAAACAAA is higher in “PBM E-score” value: 0.0236 for the first, 0.0636 for the second.
